Holding throughout (experiment): two-hybrid; Matchmaker Two-Hybrid System (Clontech); pGBKT7 (BD) and pGADT7 (AD) fusions cotransformed in yeast; SD/-Trp/-Leu/-His/-Ade/X-α-gal (40 μg/ml) with 5 mM 3-AT; grade by the number of clones
The target in assay [1] is T1, AGAMOUS-LIKE 24 (AGL24) of Arabidopsis (Arabidopsis), O82794.
T1 chain: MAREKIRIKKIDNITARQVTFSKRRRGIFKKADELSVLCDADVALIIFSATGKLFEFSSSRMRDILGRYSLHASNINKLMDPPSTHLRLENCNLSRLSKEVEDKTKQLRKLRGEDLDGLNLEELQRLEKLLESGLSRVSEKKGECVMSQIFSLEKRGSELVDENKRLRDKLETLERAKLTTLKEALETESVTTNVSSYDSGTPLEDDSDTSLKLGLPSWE
The settings on record: remark: other sources report otherwise.

By UniProt entry, the sequences of proteins in these tests, tags left out.
UniProt O64645: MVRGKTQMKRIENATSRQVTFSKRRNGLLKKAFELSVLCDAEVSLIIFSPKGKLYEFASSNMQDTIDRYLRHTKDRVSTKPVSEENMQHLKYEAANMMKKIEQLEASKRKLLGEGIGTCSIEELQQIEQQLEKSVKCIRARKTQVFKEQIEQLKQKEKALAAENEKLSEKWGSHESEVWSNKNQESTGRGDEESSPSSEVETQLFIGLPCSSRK

The target of assay [2] is …3 (SEP3) of Arabidopsis (Arabidopsis) (UniProt O22456).
Assay [3] concerns the target SUPPRESSOR OF OVEREXPRESSION OF CONSTANS 1 (SOC1) of Arabidopsis (Arabidopsis) (UniProt O64645).

These are yes or no findings as the source states them, for the method shown. Some entries that bind do so weakly or less than the wild type.

B1: AGAMOUS-LIKE 24 (AGL24) of Arabidopsis, O82794 1-220 (protein)
chain: T1 chain
For B1, the binding result in assay [1] is recorded as “binds”.

B2: AGAMOUS-LIKE 24 (AGL24) of Arabidopsis (protein, UniProt O82794 1-220)
chain: T1 chain
B2: the binding entry in assay [2] and in assay [3] was “binds” throughout.

Values taken from article PMC4901042.
